This is an account of results in PubChem BioAssay AID248 (DTP/NCI, 2004).

This experiment deals with L1210 leukemia ip in BDF1 mice, survival T/C. Briefly: NCI In Vivo Anticancer Drug Screen. Data for tumor model L1210 Leukemia (intraperitoneal) in B6D2F1 (BDF1) mice. Particulars: T/C endpoint: mean survival time, higher T/C = longer survival.
Where [1] appears, read: dose: 400.0 mg/kg/injection, schedule: Q04DX003 (ip), vehicle: saline.
Where [2] appears, read: dose: 200.0 mg/kg/injection, schedule: Q01DX009 (ip), vehicle: saline.
Setting [3] is: dose: 200.0 mg/kg/injection, schedule: Q01DX009 (ip), vehicle: Klucel (hydroxypropylcellulose) (HPC).
Where [4] appears, read: dose: 25.0 mg/kg/injection, schedule: Q01DX009 (ip), vehicle: saline with Tween-80.
Where [5] appears, read: dose: 50.0 mg/kg/injection, schedule: Q01DX009 (ip), vehicle: saline with Tween-80.
[6] abbreviates: dose: 200.0 mg/kg/injection, schedule: Q01DX009 (ip), vehicle: saline with Tween-80.
Where [7] appears, read: dose: 200.0 mg/kg/injection, schedule: Q01DX001 (ip), vehicle: saline.

The list is a part of this screen's results and no random one: it gathers tests that were run many times, whatever their T/C, doses with no T/C, and many T/C values between a quarter and a half above the control. Other doses and runs of a compound stand elsewhere. T/C gives the treated animals as a percentage of the vehicle group. Some doses have a count of surviving animals in place of a T/C: the source holds a T/C of zero for them, seemingly a mark for toxic or unscored doses. Some doses without a T/C left all or most animals alive at the check, yet need not have been tolerated: survival well below the control is almost never listed, so the zero probably covers shortened survival too. Survivors were counted at the toxicity check, usually on the fifth day, unless a day is given; later deaths do not show. Schedule codes are those of the source, read here as Q, the interval in days (D) or hours (H), X, the number of doses. Some doses were run more than once; their values stand side by side, smallest first. Where survival is the endpoint, this PubChem deposit counts one and a half times the control or more as active, and values a quarter to a half above the control carry no call in these data; other NCI protocols may use other cut-offs. Some T/C values are followed by the survivors on the day toxicity was checked, most often the fifth; where none is given, no animal had died by that day.

For `Cc1cc([P+](c2ccccc2)(c2ccccc2)c2ccccc2)c(C)cc1[P+](c1ccccc1)(c1ccccc1)c1ccccc1`, the survivor count is recorded as 3 of 6 (dose: 6.25 mg/kg/injection, schedule: Q04DX003 (ip), vehicle: Klucel (hydroxypropylcellulose) (HPC)); 0 of 6 (dose: 12.5 mg/kg/injection, schedule: Q04DX003 (ip), vehicle: Klucel (hydroxypropylcellulose) (HPC)); 0 of 6 (dose: 25.0 mg/kg/injection, schedule: Q04DX003 (ip), vehicle: Klucel (hydroxypropylcellulose) (HPC)); 0 of 6 (dose: 100.0 mg/kg/injection, schedule: Q04DX003 (ip), vehicle: saline); 0 of 6 (dose: 200.0 mg/kg/injection, schedule: Q04DX003 (ip), vehicle: saline); 0 of 6 under setting [1].

On to `OC1(c2ccccc2)CC2CC1c1ccccc12` (centres undefined), for which the survivor count (dose: 50.0 mg/kg/injection, schedule: Q01DX001 (ip), vehicle: carboxymethylcellulose (CMC)) was 4 of 4.

As for `CC1=C(N2CC2)C(=O)c2ccccc2C1=O`, the survivor count runs as follows: (dose: 200.0 mg/kg/injection, schedule: Q01DX001 (ip), vehicle: Klucel (hydroxypropylcellulose) (HPC)) 0 of 6; (dose: 400.0 mg/kg/injection, schedule: Q01DX001 (ip), vehicle: Klucel (hydroxypropylcellulose) (HPC)) 0 of 6.

For the compound `NS(=O)(=O)c1c([N+](=O)[O-])ncn1C1OC(COC(=O)c2ccccc2)C(OC(=O)c2ccccc2)C1OC(=O)c1ccccc1` (centres undefined), for the setting “dose: 50.0 mg/kg/injection, schedule: Q01DX009 (ip), vehicle: saline”, the T/C was 134 % of control [5 of 6 alive]. In addition, the survivor count is 3 of 6 (dose: 100.0 mg/kg/injection, schedule: Q01DX009 (ip), vehicle: saline) and 0 of 6 under setting [2].

Regarding `COc1ccc(N=NN(C)C(=O)c2ccccc2)cc1`, the T/C under setting [3] is 132 % of control.

For the compound `CC1CCCC(CN=Cc2ccccc2O)[N-]1.CC1CCCC(CN=Cc2ccccc2O)[N-]1.[Ni+2]` (centres undefined), the survivor count is, setting by setting: (dose: 200.0 mg/kg/injection, schedule: Q04DX003 (ip), vehicle: saline with Tween-80) 6 of 6; (dose: 400.0 mg/kg/injection, schedule: Q04DX003 (ip), vehicle: saline with Tween-80) 1 of 6.

As for `O=C1C=C/C(=N/S(=O)(=O)c2ccccc2)c2ccccc21`, the survivor count reads like this: (dose: 25.0 mg/kg/injection, schedule: Q01DX009 (ip), vehicle: DMSO) 6 of 6; (dose: 50.0 mg/kg/injection, schedule: Q01DX009 (ip), vehicle: DMSO) 6 of 6; (dose: 100.0 mg/kg/injection, schedule: Q01DX009 (ip), vehicle: DMSO) 1 of 6; (dose: 200.0 mg/kg/injection, schedule: Q04DX003 (ip), vehicle: DMSO) 1 of 6; (dose: 400.0 mg/kg/injection, schedule: Q04DX003 (ip), vehicle: DMSO) 0 of 6.

Regarding `O=C(CCc1ccccc1)NC(=S)Nc1cccc([N+](=O)[O-])c1`, the T/C under setting [4] is 94, 101, 107 % of control; the T/C under setting [5] is 88, 92, 93, 97, 108 % of control; the T/C (dose: 100.0 mg/kg/injection, schedule: Q01DX009 (ip), vehicle: saline with Tween-80) is recorded as 89, 92, 93, 94, 95, 107 % of control; the T/C under setting [6] was 86 [5 of 6 alive] and 101 % of control [4 of 6 alive]. For the same compound, the survivor count by setting is: under setting [4], 3 of 3; under setting [5], 3 of 3; under setting [6], 1 of 3 and 3 of 3; (dose: 400.0 mg/kg/injection, schedule: Q01DX001 (ip), vehicle: saline with Tween-80) 0 of 6; (dose: 400.0 mg/kg/injection, schedule: Q04DX002 (ip), vehicle: alcohol) 3 of 3.

As for `Cn1ccc(CCl)n1`, the survivor count under setting [1] is 4 of 6.

As to `CCCC(CCN(C)C)(CNC(=O)CN(CC)CC)c1cccc2ccccc12` (centres undefined), the survivor count under setting [2] was 4 of 6 and the survivor count (dose: 400.0 mg/kg/injection, schedule: Q01DX009 (ip), vehicle: saline) was 0 of 6.

Regarding `O=C(c1ccccc1)C(C(=O)c1ccccc1)C(c1ccccc1)C(C(=O)c1ccccc1)C(c1ccccc1)c1ccccc1` (centres undefined), the survivor count under setting [7] was 6 of 6.

For `C[n+]1ccc(Cl)c2ccc(Cl)cc21`, the survivor count (dose: 75.0 mg/kg/injection, schedule: Q01DX001 (ip), vehicle: saline) is reported as 1 of 6; the survivor count (dose: 150.0 mg/kg/injection, schedule: Q01DX001 (ip), vehicle: saline) is on record as 0 of 6; the survivor count (dose: 300.0 mg/kg/injection, schedule: Q01DX001 (ip), vehicle: saline) is on record as 0 of 6.

With `Nc1ncc(N=O)c(=O)[nH]1`, where the note is “dose: 200.0 mg/kg/injection, schedule: Q04DX002 (ip), vehicle: Klucel (hydroxypropylcellulose) (HPC)”, the survivor count is 3 of 3.

As to `COc1ccc(C(O)CNC(=O)c2ccccc2)cc1` (centres undefined), under “dose: 200.0 mg/kg/injection, schedule: Q04DX003 (ip), vehicle: Klucel (hydroxypropylcellulose) (HPC)”, the survivor count was 6 of 6.

`O=C1C(Cl)=CC(=NS(=O)(=O)c2ccccc2)C=C1Cl`: under setting [4], the survivor count is 2 of 6.

As for `Nc1nc(Cl)c(N=Nc2ccccc2)c(=O)[nH]1`, where the note is “dose: 100.0 mg/kg/injection, schedule: Q01DX009 (ip), vehicle: carboxymethylcellulose (CMC)”, the T/C is 91, 95, 100, 109 % of control. In addition, the survivor count is 3 of 3 and 6 of 6 (dose: 200.0 mg/kg/injection, schedule: Q01DX009 (ip), vehicle: carboxymethylcellulose (CMC)); 3 of 3 (dose: 200.0 mg/kg/injection, schedule: Q04DX002 (ip), vehicle: carboxymethylcellulose (CMC)); 2 of 3 and 5 of 6 (dose: 400.0 mg/kg/injection, schedule: Q01DX009 (ip), vehicle: carboxymethylcellulose (CMC)).

Take `CCOC(=O)C1CC1(C)Br` (centres undefined): the survivor count by setting is: (dose: 12.5 mg/kg/injection, schedule: Q04DX002 (ip), vehicle: saline with Tween-80) 3 of 3; (dose: 50.0 mg/kg/injection, schedule: Q04DX002 (ip), vehicle: saline with Tween-80) 3 of 3; (dose: 200.0 mg/kg/injection, schedule: Q04DX002 (ip), vehicle: saline with Tween-80) 3 of 3.

Take `NC(=S)c1[nH]cnc1N`: the survivor count is, setting by setting: (dose: 90.0 mg/kg/injection, schedule: Q01DX015 (ip), vehicle: saline) 3 of 6; under setting [7], 0 of 6; (dose: 400.0 mg/kg/injection, schedule: Q01DX001 (ip), vehicle: saline) 0 of 6.

For `O=C(Nc1ccc2c(c1)Cc1cccc(NC(=O)C(Cl)Cl)c1-2)C(Cl)Cl`, the survivor count (dose: 100.0 mg/kg/injection, schedule: Q01DX009 (ip), vehicle: Klucel (hydroxypropylcellulose) (HPC)) is given as 6 of 6.

Consider `CCCCCCCCCCCCOB(OCCCCCCCCCCCC)OCCCCCCCCCCCC`, for which the survivor count reads like this: under setting [6], 4 of 6; (dose: 400.0 mg/kg/injection, schedule: Q01DX009 (ip), vehicle: saline with Tween-80) 3 of 6.

As to `COc1ccc(OC)c(N)c1`, the survivor count under setting [3] is 0 of 6 and the survivor count (dose: 400.0 mg/kg/injection, schedule: Q01DX009 (ip), vehicle: Klucel (hydroxypropylcellulose) (HPC)) was 0 of 6.
